The other results are listed elsewhere or left out.
Experiments:
Assay in all cases: glycan array binding signal (z-score within array); higher = stronger binding
Details in all cases: glycan notation: IUPAC condensed, linker removed
[1] = biological target: Gal(a1-3)Gal(b1-3)GlcNAc(b1-6)GalNAc
Summary of the method: (§1)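 Arrays were curated from the Consortium for Functional Glycomics database, 3228 in total, and kept only where the protein sequence was available. Binding is expressed as a within-array Z-score. This score was averaged across arrays of the same protein sequence at different concentrations or buffers and across linkers, and negative values can be read as non-binding.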

[2] = biological target: Gal(a1-3)Gal(b1-3)[Fuc(a1-4)]GlcNAc(b1-2)Man(a1-3)[Gal(a1-3)Gal(b1-3)[Fuc(a1-4)]GlcNAc(b1-2)Man(a1-6)]Man(b1-4)GlcNAc(b1-4)GlcNAc
Summary of the method: as §1

Gal(a1-3)Gal(b1-4)Glc = biological target: Gal(a1-3)Gal(b1-4)Glc
Summary of the method: as §1

Gal(a1-3)Gal(b1-4)GlcNAc = biological target: Gal(a1-3)Gal(b1-4)GlcNAc
Summary of the method: as §1

[3] = biological target: Gal(a1-3)Gal(b1-4)GlcNAc(b1-2)Man
Summary of the method: as §1

[4] = biological target: Gal(a1-3)Gal(b1-4)GlcNAc(b1-2)Man(a1-3)[Gal(a1-3)Gal(b1-4)GlcNAc(b1-2)Man(a1-6)]Man(b1-4)GlcNAc(b1-4)GlcNAc
Summary of the method: as §1

[5] = biological target: Gal(a1-3)Gal(b1-4)GlcNAc(b1-3)GalNAc
Summary of the method: as §1

[6] = biological target: Gal(a1-3)Gal(b1-4)GlcNAc(b1-6)GalNAc
Summary of the method: as §1

[7] = biological target: Gal(a1-3)Gal(b1-4)[Fuc(a1-3)]GlcNAc
Summary of the method: as §1

[8] = biological target: Gal(a1-3)Gal(b1-4)[Fuc(a1-3)]GlcNAc(b1-2)Man(a1-3)[Gal(a1-3)Gal(b1-4)[Fuc(a1-3)]GlcNAc(b1-2)Man(a1-6)]Man(b1-4)GlcNAc(b1-4)GlcNAc
Summary of the method: as §1

Gal(a1-3)GalNAc = biological target: Gal(a1-3)GalNAc
Summary of the method: as §1

[9] = biological target: Gal(a1-3)[Gal(a1-4)]Gal(b1-4)GlcNAc
Summary of the method: as §1

[10] = biological target: Gal(a1-4)Gal(b1-3)GlcNAc(b1-2)Man(a1-3)[Gal(a1-4)Gal(b1-3)GlcNAc(b1-2)Man(a1-6)]Man(b1-4)GlcNAc(b1-4)GlcNAc
Summary of the method: as §1

Gal(a1-4)Gal(b1-4)Glc = biological target: Gal(a1-4)Gal(b1-4)Glc
Summary of the method: as §1

Gal(a1-4)Gal(b1-4)GlcNAc = biological target: Gal(a1-4)Gal(b1-4)GlcNAc
Summary of the method: as §1

[11] = biological target: Gal(a1-4)Gal(b1-4)GlcNAc(b1-2)Man(a1-3)[Gal(a1-4)Gal(b1-4)GlcNAc(b1-2)Man(a1-6)]Man(b1-4)GlcNAc(b1-4)GlcNAc
Summary of the method: as §1

[12] = biological target: Gal(a1-4)Gal(b1-4)GlcNAc(b1-3)Gal(b1-4)Glc
Summary of the method: as §1

Gal(a1-4)GlcNAc = biological target: Gal(a1-4)GlcNAc
Summary of the method: as §1

Gal(a1-6)Glc = biological target: Gal(a1-6)Glc
Summary of the method: as §1

Gal(b1-2)Gal = biological target: Gal(b1-2)Gal
Summary of the method: as §1

Gal(b1-3)Gal = biological target: Gal(b1-3)Gal
Summary of the method: as §1

Gal(b1-3)Gal(b1-4)GlcNAc = biological target: Gal(b1-3)Gal(b1-4)GlcNAc
Summary of the method: as §1

Gal(b1-3)GalNAc = biological target: Gal(b1-3)GalNAc
Summary of the method: as §1

[13] = biological target: Gal(b1-3)GalNAc(a1-3)[Fuc(a1-2)]Gal(b1-4)Glc
Summary of the method: as §1

[14] = biological target: Gal(b1-3)GalNAc(a1-3)[Fuc(a1-2)]Gal(b1-4)GlcNAc
Summary of the method: as §1

Gal(b1-3)GalNAc(b1-3)Gal = biological target: Gal(b1-3)GalNAc(b1-3)Gal
Summary of the method: as §1

[15] = biological target: Gal(b1-3)GalNAc(b1-3)Gal(a1-4)Gal(b1-4)Glc
Summary of the method: as §1

[16] = biological target: Gal(b1-3)GalNAc(b1-4)Gal(b1-4)Glc
Summary of the method: as §1

[17] = biological target: Gal(b1-3)GalNAc(b1-4)[Neu5Ac(a2-3)]Gal(b1-4)Glc
Summary of the method: as §1

Gal(b1-3)GlcNAc = biological target: Gal(b1-3)GlcNAc
Summary of the method: as §1

[18] = biological target: Gal(b1-3)GlcNAc(a1-3)Gal(b1-4)GlcNAc
Summary of the method: as §1

[19] = biological target: Gal(b1-3)GlcNAc(a1-6)Gal(b1-4)GlcNAc
Summary of the method: as §1

Gal(b1-3)GlcNAc(b1-2)Man = biological target: Gal(b1-3)GlcNAc(b1-2)Man
Summary of the method: as §1

[20] = biological target: Gal(b1-3)GlcNAc(b1-2)Man(a1-3)[Gal(b1-3)GlcNAc(b1-2)Man(a1-6)]Man(b1-4)GlcNAc(b1-4)GlcNAc
Summary of the method: as §1

[21] = biological target: Gal(b1-3)GlcNAc(b1-2)Man(a1-3)[Gal(b1-3)GlcNAc(b1-2)Man(a1-6)]Man(b1-4)GlcNAc(b1-4)[Fuc(a1-6)]GlcNAc
Summary of the method: as §1

[22] = biological target: Gal(b1-3)GlcNAc(b1-2)Man(a1-3)[GlcNAc(b1-4)][Gal(b1-3)GlcNAc(b1-2)Man(a1-6)]Man(b1-4)GlcNAc(b1-4)GlcNAc
Summary of the method: as §1

[23] = biological target: Gal(b1-3)GlcNAc(b1-2)[Gal(b1-3)GlcNAc(b1-6)]Man(a1-6)[Gal(b1-3)GlcNAc(b1-2)Man(a1-3)]Man(b1-4)GlcNAc(b1-4)GlcNAc
Summary of the method: as §1

[24] = biological target: Gal(b1-3)GlcNAc(b1-3)Gal(b1-3)GlcNAc
Summary of the method: as §1

[25] = biological target: Gal(b1-3)GlcNAc(b1-3)Gal(b1-4)Glc
Summary of the method: as §1

[26] = biological target: Gal(b1-3)GlcNAc(b1-3)Gal(b1-4)GlcNAc
Summary of the method: as §1

[27] = biological target: Gal(b1-3)GlcNAc(b1-3)Gal(b1-4)GlcNAc(b1-2)Man(a1-3)[Gal(b1-3)GlcNAc(b1-3)Gal(b1-4)GlcNAc(b1-2)Man(a1-6)]Man(b1-4)GlcNAc(b1-4)GlcNAc
Summary of the method: as §1

[28] = biological target: Gal(b1-3)GlcNAc(b1-3)Gal(b1-4)GlcNAc(b1-2)[Gal(b1-3)GlcNAc(b1-3)Gal(b1-4)GlcNAc(b1-6)]Man(a1-6)[Gal(b1-3)GlcNAc(b1-3)Gal(b1-4)GlcNAc(b1-2)Man(a1-3)]Man(b1-4)GlcNAc(b1-4)[Fuc(a1-6)]GlcNAc
Summary of the method: as §1

[29] = biological target: Gal(b1-3)GlcNAc(b1-3)Gal(b1-4)GlcNAc(b1-3)Gal(b1-4)GlcNAc(b1-2)[Gal(b1-3)GlcNAc(b1-3)Gal(b1-4)GlcNAc(b1-3)Gal(b1-4)GlcNAc(b1-6)]Man(a1-6)[Gal(b1-3)GlcNAc(b1-3)Gal(b1-4)GlcNAc(b1-3)Gal(b1-4)GlcNAc(b1-2)Man(a1-3)]Man(b1-4)GlcNAc(b1-4)[Fuc(a1-6)]GlcNAc
Summary of the method: as §1

[30] = biological target: Gal(b1-3)GlcNAc(b1-3)Gal(b1-4)GlcNAc(b1-6)[Gal(b1-3)GlcNAc(b1-3)]Gal(b1-4)Glc
Summary of the method: as §1

[31] = biological target: Gal(b1-3)GlcNAc(b1-3)Gal(b1-4)[Fuc(a1-3)]GlcNAc
Summary of the method: as §1

B1: Endo180d1-D4 (Homo sapiens), Q9UBG0 (protein)
chain: MGPGRPAPAPWPRHLLRCVLLLGCLHLGRPGAPGDAALPEPNVFLIFSHGLQGCLEAQGGQVRVTPACNTSLPAQRWKWVSRNRLFNLGTMQCLGTGWPGTNTTASLGMYECDREALNLRWHCRTLGDQLSLLLGARTSNISKPGTLERGDQTRSGQWRIYGSEEDLCALPYHEVYTIQGNSHGKPCTIPFKYDNQWFHGCTSTGREDGHLWCATTQDYGKDERWGFCPIKSNDCETFWDKDQLTDSCYQFNFQSTLSWREAWASCEQQGADLLSITEIHEQTYINGLLTGYSSTLWIGLNDLDTSGGWQWSDNSPLKYLNWESDQPDNPSEENCGVIRTESSGGWQNRDCSIALPYVCKKKPNATAEPTPPDRWANVKVECEPSWQPFQGHCYRLQAEKRSWQESKKACLRGGGDLVSIHSMAELEFITKQIKQEVEELWIGLNDLKLQMNFEWSDGSLVSFTHWHPFEPNNFRDSLEDCVTIWGPEGRWNDSPCNQSLPSICKKAGQLSQGAAEEDHGCRKGWTWHSPSCYWLGEDQVTYSEARRLCTDHGSQLVTITNRFEQAFVSSLIYNWEGEYFWTALQDLNSTGSFFWLSGDEVMYTHWNRDQPGYSRGGCVALATGSAMGLWEVKNCTSFRARYICRQSLGTPVTPELPGPDPTPSLTGSCPQGWASDTKLRYCYKVFSSERLQDKKSWVQAQGACQELGAQLLSLASYEEEHFVANMLNKIFGESEPEIHEQHWFWIGLNRRDPRGGQSWRWSDGVGFSYHNFDRSRHDDDDIRGCAVLDLASLQWVAMQCDTQLDWICKIPRGTDVREPDDSPQGRREWLRFQEAEYKFFEHHSTWAQAQRICTWFQAELTSVHSQAELDFLSHNLQKFSRAQEQHWWIGLHTSESDGRFRWTDGSIINFISWAPGKPRPVGKDKKCVYMTASREDWGDQRCLTALPYICKRSNVTKETQPPDLPTTALGGCPSDWIQFLNKCFQVQGQEPQSRVKWSEAQFSCEQQEAQLVTITNPLEQAFITASLPNVTFDLWIGLHASQRDFQWVEQEPLMYANWAPGEPSGPSPAPSGNKPTSCAVVLHSPSAHFTGRWDDRSCTEETHGFICQKGTDPSLSPSPAALPPAPGTELSYLNGTFRLLQKPLRWHDALLLCESHNASLAYVPDPYTQAFLTQAARGLRTPLWIGLAGEEGSRRYSWVSEEPLNYVGWQDGEPQQPGGCTYVDVDGAWRTTSCDTKLQGAVCGVSSGPPPPRRISYHGSCPQGLADSAWIPFREHCYSFHMELLLGHKEARQRCQRAGGAVLSILDEMENVFVWEHLQSYEGQSRGAWLGMNFNPKGGTLVWQDNTAVNYSNWGPPGLGPSMLSHNSCYWIQSNSGLWRPGACTNITMGVVCKLPRAEQSSFSPSALPENPAALVVVLMAVLLLLALLTAALILYRRRQSIERGAFEGARYSRSSSSPTEATEKNILVSDMEMNEQQE
- glycan array binding signal (z-score) [1]: 0.29
- glycan array binding signal (z-score) [2]: 0.975
- glycan array binding signal (z-score) (Gal(a1-3)Gal(b1-4)Glc): 0.291
- glycan array binding signal (z-score) (Gal(a1-3)Gal(b1-4)GlcNAc): -0.683
- glycan array binding signal (z-score) [3]: -0.49
- glycan array binding signal (z-score) [4]: 0.04
- glycan array binding signal (z-score) [5]: 0.184
- glycan array binding signal (z-score) [6]: -0.505
- glycan array binding signal (z-score) [7]: -0.102
- glycan array binding signal (z-score) [8]: -0.306
- glycan array binding signal (z-score) (Gal(a1-3)GalNAc): -0.458
- glycan array binding signal (z-score) [9]: 0.096
- glycan array binding signal (z-score) [10]: -0.019
- glycan array binding signal (z-score) (Gal(a1-4)Gal(b1-4)Glc): 0.385
- glycan array binding signal (z-score) (Gal(a1-4)Gal(b1-4)GlcNAc): 0.072
- glycan array binding signal (z-score) [11]: -0.187
- glycan array binding signal (z-score) [12]: -0.136
- glycan array binding signal (z-score) (Gal(a1-4)GlcNAc): -0.552
- glycan array binding signal (z-score) (Gal(a1-6)Glc): 0.11
- glycan array binding signal (z-score) (Gal(b1-2)Gal): 0.723
- glycan array binding signal (z-score) (Gal(b1-3)Gal): 0.074
- glycan array binding signal (z-score) (Gal(b1-3)Gal(b1-4)GlcNAc): 0.793
- glycan array binding signal (z-score) (Gal(b1-3)GalNAc): -0.002
- glycan array binding signal (z-score) [13]: -0.502
- glycan array binding signal (z-score) [14]: -1.31
- glycan array binding signal (z-score) (Gal(b1-3)GalNAc(b1-3)Gal): -0.308
- glycan array binding signal (z-score) [15]: -0.318
- glycan array binding signal (z-score) [16]: -0.447
- glycan array binding signal (z-score) [17]: -0.221
- glycan array binding signal (z-score) (Gal(b1-3)GlcNAc): 0.059
- glycan array binding signal (z-score) [18]: 0.387
- glycan array binding signal (z-score) [19]: -0.239
- glycan array binding signal (z-score) (Gal(b1-3)GlcNAc(b1-2)Man): 0.202
- glycan array binding signal (z-score) [20]: -0.269
- glycan array binding signal (z-score) [21]: 0.338
- glycan array binding signal (z-score) [22]: -0.241
- glycan array binding signal (z-score) [23]: 0.904
- glycan array binding signal (z-score) [24]: -0.695
- glycan array binding signal (z-score) [25]: -0.601
- glycan array binding signal (z-score) [26]: 0.189
- glycan array binding signal (z-score) [27]: -0.535
- glycan array binding signal (z-score) [28]: -0.821
- glycan array binding signal (z-score) [29]: 0.339
- glycan array binding signal (z-score) [30]: 0.002
- glycan array binding signal (z-score) [31]: 0.312

— the supplement of paper PMC8728848
